Laboratory results: paper PMC10284794
Results are given in words; binding and its absence hold for the method and conditions named. In cells and extracts the contact can be indirect. Here binding means that the protein was enriched with, or labelled near, the bait; the list need not be complete.

T1: RNF128, RING finger protein 128 (mouse (endogenous in lung tissue)) (UniProt Q9D304)
T1 sequence: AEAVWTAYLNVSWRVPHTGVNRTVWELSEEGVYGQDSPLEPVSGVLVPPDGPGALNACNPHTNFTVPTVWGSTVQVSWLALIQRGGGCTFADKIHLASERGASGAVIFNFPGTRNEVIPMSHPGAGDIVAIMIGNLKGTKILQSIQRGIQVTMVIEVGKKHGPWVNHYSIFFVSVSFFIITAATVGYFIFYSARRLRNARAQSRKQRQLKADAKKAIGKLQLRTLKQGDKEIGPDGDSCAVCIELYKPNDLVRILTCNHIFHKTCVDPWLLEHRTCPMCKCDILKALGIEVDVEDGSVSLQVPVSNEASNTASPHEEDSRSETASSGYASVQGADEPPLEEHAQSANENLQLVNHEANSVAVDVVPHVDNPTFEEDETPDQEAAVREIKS


Target: T1, RNF128, RING finger protein 128 (mouse (endogenous in lung tissue))
Assay: affinity purification with mass spectrometry; whole lung tissue lysates from WT and WT-LPS mice immunoprecipitated using the RNF128 antibody; trypsin digest, LC-MS/MS; hits at least 2-fold more abundant in WT-LPS than in WT

Row | binding | Binder
1 | binds | Glycogen phosphorylase, liver form (protein, UniProt Q9ET01 1-850) MAKPLTDQEKRRQISIRGIVGVENVAELKKGFNRHLHFTLVKDRNVATPRDYYFALAHTVRDHLVGRWIRTQQHYYDKCPKRVYYLSLEFYMGRTLQNTMINLGLQNACDEAIYQLGLDMEELEEIEEDAGLGNGGLGRLAACFLDSMATLGLAAYGYGIRYEYGIFNQKIREGWQVEEADDWLRHGNPWEKARPEFMLPVHFYGRVEHTQTGTKWVDTQVVLALPYDTPVPGYMNNTVNTMRLWSARAPNDFNLQDFNVGDYIQAVLDRNLAENISRVLYPNDNFFEGKELRLKQEYFVVAATLQDVIRRFKASKFGSKDGMGTVFDAFPDQVAIQLNDTHPALAIPELMRIFVDIEKLPWAKAWEITKKTFAYTNHTVLPEALERWPVELVEKLLPRHLEIIYEINQKHLDRIVALFPKDISRMRRMSLIEEEGGKRINMAHLCIVGCHAVNGVAKIHSDIVKTQVFKDFSELEPDKFQNKTNGITPRRWLLLCNPGLADLIAEKIGEDYVKDLSQLTKLHSFVSDDIFLREIAKVKQENKLKFSQFLEKEYKVKINPSSMFDVHVKRIHEYKRQLLNCLHVITMYNRIKKDPKKFFVPRTVIIGGKAAPGYHMAKMIIKLITSVAEVVNNDPMVGSKLKVIFLENYRVSLAEKVIPATDLSEQISTAGTEASGTGNMKFMLNGALTIGTMDGANVEMAEEAGEENLFIFGMRVDDVAALDKKGYEAKEYYEALPELKLVIDQIDNGFFSPNQPDLFKDIINMLFYHDRFKVFADYEAYVKCQEKVSQLYMNQKAWNTMVLKNIAASGKFSSDRTIKEYAKDIWNMEPSDLKISLSNESSNGVSANGK
2 | binds | Non-POU domain-containing octamer-binding protein (protein, UniProt Q99K48 1-473) MQSNKAFNLEKQNHTPRKHHQHHHQQHHQQQQQQQQQQPPPPIPANGQQASSQNEGLTIDLKNFRKPGEKTFTQRSRLFVGNLPPDITEEEMRKLFEKYGKAGEVFIHKDKGFGFIRLETRTLAEIAKVELDNMPLRGKQLRVRFACHSASLTVRNLPQYVSNELLEEAFSVFGQVERAVVIVDDRGRPSGKGIVEFSGKPAARKALDRCSEGSFLLTTFPRPVTVEPMDQLDDEEGLPEKLVIKNQQFHKEREQPPRFAQPGSFEYEYAMRWKALIEMEKQQQDQVDRNIKEAREKLEMEMEAARHEHQVMLMRQDLMRRQEELRRMEELHNQEVQKRKQLELRQEEERRRREEEMRRQQEEMMRRQQEGFKGTFPDAREQEIRMGQMAMGGAMGINNRGAMPPAPVPPGTPAPPGPATMMPDGTLGLTPPTTERFGQAATMEGIGAIGGTPPAFNRPAPGAEFAPNKRRRY
3 | binds | ADP/ATP translocase 1 (protein, UniProt P48962 1-298) MGDQALSFLKDFLAGGIAAAVSKTAVAPIERVKLLLQVQHASKQISAEKQYKGIIDCVVRIPKEQGFLSFWRGNLANVIRYFPTQALNFAFKDKYKQIFLGGVDRHKQFWRYFAGNLASGGAAGATSLCFVYPLDFARTRLAADVGKGSSQREFNGLGDCLTKIFKSDGLKGLYQGFSVSVQGIIIYRAAYFGVYDTAKGMLPDPKNVHIIVSWMIAQSVTAVAGLVSYPFDTVRRRMMMQSGRKGADIMYTGTLDCWRKIAKDEGANAFFKGAWSNVLRGMGGAFVLVLYDEIKKYV
